Data as given in PubChem BioAssay AID686938 (Drosophila RNAi Screening Center, 2013)
Purpose: 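Fly genes required for calcium entry once internal stores are emptied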 (primary screen). System: Drosophila S2R+ cells. Knock-down reagent: long dsRNA against Drosophila genes, about 0.25 µg dsRNA per well, roughly 10,000 cells. Duration: 5 days of knock-down before the calcium assay. Conditions: thapsigargin (SERCA pump blocker) to empty calcium stores; entry signal taken 4 min after adding it. Measurement: 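Per-well fluo-4 fluorescence in two replicates, unnormalised, measured in resting cells and 4 min after store depletion by the SERCA blocker thapsigargin; ratio of the two present in few wells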. Scale: calcium entry signal: higher = stronger calcium signal after store depletion; resting calcium signal: higher = higher resting calcium signal. Units: calcium entry signal in fluorescence units; resting calcium signal in fluorescence units. Call rule: 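Called when the plate z-score of the entry-to-rest ratio, mean of duplicates, falls below −3; wells with low overall dye signal (Fmax z below −2) or more than five off-targets excluded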. Meaning of the calls: active = strongly reduced calcium entry; inactive = no strong reduction.
In all, the deposit lists about 23,000 reagents; this is an unselected part of those that have a named target and a result. In the full data, 75 (0.33%) were called active. 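Raw plate signals without normalisation; calls rest on plate z-scores that were not deposited; ratio present for only 364 wells.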 Not given: the dose of the treatment.

calcium entry signal, replicate 1 | calcium entry signal, replicate 2 | resting calcium signal, replicate 1 | resting calcium signal, replicate 2 | Call | gene | dsRNA
4.93e7 | 4.96e7 | 2.35e7 | 2.23e7 | inactive | CG13494 | DRSC04139
2.72e7 | 4.20e7 | 1.30e7 | 1.76e7 | inactive | CG4702 | DRSC15626
4.06e7 | 4.90e7 | 1.88e7 | 2.00e7 | inactive | CG18302 | DRSC02663
5.65e7 | 3.51e7 | 2.57e7 | 1.44e7 | inactive | cdm | DRSC16213
3.85e7 | 5.30e7 | 1.90e7 | 3.31e7 | inactive | Mip | DRSC10639
5.12e7 | 4.42e7 | 2.46e7 | 2.20e7 | inactive | Pbp95 | DRSC15448
3.48e7 | 4.01e7 | 1.51e7 | 1.96e7 | inactive | CG10051 | DRSC05959
4.85e7 | 4.19e7 | 1.93e7 | 2.02e7 | inactive | rgr | DRSC06487
5.02e7 | 3.77e7 | 2.09e7 | 1.81e7 | inactive | rgr | DRSC07229
3.58e7 | 4.04e7 | 1.85e7 | 2.00e7 | inactive | CG9459 | DRSC16496
2.95e7 | 3.14e7 | 1.55e7 | 1.67e7 | inactive | d-cup | DRSC14846
3.11e7 | 4.33e7 | 1.33e7 | 1.62e7 | inactive | eIF4E4 | DRSC09701
2.88e7 | 4.82e7 | 1.48e7 | 1.96e7 | inactive | CG5946 | DRSC10560
3.39e7 | 4.97e7 | 1.87e7 | 2.27e7 | inactive | Eglp4 | DRSC04438
4.09e7 | 3.97e7 | 1.76e7 | 1.70e7 | inactive | ste24b | DRSC07315
3.42e7 | 3.03e7 | 1.80e7 | 1.66e7 | inactive | CG2875 | DRSC18231
4.86e7 | 3.46e7 | 2.39e7 | 1.56e7 | inactive | CG14609 | DRSC12553
4.63e7 | 4.44e7 | 2.10e7 | 2.16e7 | inactive | Vinc | DRSC18728
2.16e7 | 3.97e7 | 1.10e7 | 1.80e7 | inactive | CG32161 | DRSC22128
2.70e7 | 5.44e7 | 1.41e7 | 2.50e7 | inactive | Ets97D | DRSC16665
3.87e7 | 3.61e7 | 1.82e7 | 1.71e7 | inactive | CG5191 | DRSC15733
4.12e7 | 5.48e7 | 6.51e7 | 2.48e7 | inactive | CG5191 | DRSC15734
4.09e7 | 3.40e7 | 2.51e7 | 1.61e7 | inactive | CG5191 | DRSC21559
4.40e7 | 3.98e7 | 1.92e7 | 1.76e7 | inactive | CG8236 | DRSC16399
4.18e7 | 4.22e7 | 2.13e7 | 1.89e7 | inactive | Tsp42A | DRSC04862
2.77e7 | 3.19e7 | 1.36e7 | 4.80e7 | inactive | apn | DRSC15124
2.62e7 | 2.69e7 | 1.18e7 | 1.16e7 | inactive | dpr1 | DRSC05906
2.71e7 | 3.06e7 | 1.32e7 | 1.35e7 | inactive | dpr1 | DRSC06399
5.01e7 | 3.77e7 | 2.31e7 | 1.66e7 | inactive | t-Grip128 | DRSC07853
3.96e7 | 3.85e7 | 1.81e7 | 1.90e7 | inactive | Ptp52F | DRSC06717
4.50e7 | – | 2.29e7 | – | inactive | Atg4a | DRSC00656
3.90e7 | 4.57e7 | 2.08e7 | 1.99e7 | inactive | CG1304 | DRSC20494
2.77e7 | 3.24e7 | 1.40e7 | 1.64e7 | inactive | CG30094 | DRSC22268
3.65e7 | 3.35e7 | 1.80e7 | 1.47e7 | inactive | Oatp74D | DRSC09491
3.95e7 | 4.41e7 | 1.89e7 | 2.88e7 | inactive | Oatp74D | DRSC10883
3.78e7 | – | 1.87e7 | – | inactive | CG3565 | DRSC04389
3.67e7 | 4.98e7 | 5.36e7 | 2.06e7 | inactive | Jhbp16 | DRSC15039
3.78e7 | 2.61e7 | 2.60e7 | 1.22e7 | inactive | CG32066 | DRSC10652
2.14e7 | 3.78e7 | 1.23e7 | 1.77e7 | inactive | CG32066 | DRSC10653
3.01e7 | 3.52e7 | 1.58e7 | 1.64e7 | inactive | CG11279 | DRSC09837
